PubChem BioAssay AID540256 (National Center for Advancing Translational Sciences (NCATS), 2011)
The whole screen tested about 300,000 compounds, of which about 3,700 (1.2%) were called active. Inconclusive means that the source gave no clear call. Such entries were picked first, then a sample of the others. Calls come from the whole dose curve; tested in HEK293 cells. Potencies beside an inconclusive call are fits to weak or partial responses and may not hold up.

Assay: qHTS for Inhibitors of binding or entry into cells for Lassa Virus; note: nearly all actives have a fitted effect of over 50% in size
Details: Lassa virus pseudotype entry inhibition, cell reporter; series mostly up to 37.9 µM
Potency is the fitted concentration of half-maximal effect.

| Compound | Potency |
| --- | --- |
| CCCCOc1ccc(-c2nnn(CC(=O)NCc3ccco3)n2)cc1 | inconclusive: 2.91 µM [inhibitor, full curve] |
| Cc1c(C2C(C#N)=C(N)N(c3ccccc3C#N)C3=C2C(=O)CCC3)cnn1C (centres undefined) | inactive |
| COc1ccccc1CN1C(=O)c2ccccc2C1C(=O)NC1CCC(C)CC1 (centres undefined) | inconclusive: 35.5 µM [inhibitor, partial curve, poor fit] |
| COC(=O)c1cc(NC(=O)c2ccc(-c3ccc(Cl)cc3Cl)o2)cc(C(=O)OC)c1 | inactive |
| CC(=O)Nc1ccc(S(=O)(=O)N2CCSC2)cc1 | inconclusive: 2.82 µM [inhibitor, single point] |
| CCN1C(=O)/C(=C/c2cccs2)S/C1=N\S(=O)(=O)c1ccc(C)cc1 | inconclusive: 3.16 µM [inhibitor, partial curve, poor fit] |
| Oc1ccc2oc3c(c2c1)CCCC3 | inconclusive: 35.5 µM [inhibitor, single point] |
| COc1ccc(-c2nnc(SCC(=O)Nc3cccc(Cl)c3)o2)cc1 | inconclusive: 0.184 µM [activator, full curve] |
| Cc1ccc2oc(-c3cc(NC(=O)/C=C/c4ccco4)ccc3Cl)nc2c1 | inconclusive: 22.4 µM [inhibitor, single point] |
| Fc1ccc(CSc2nnc3ccccn23)c(Cl)c1 | inconclusive: 10 µM [activator, partial curve, poor fit] |
| Clc1ccccc1-c1nnc(-c2cccs2)o1 | inconclusive: 35.5 µM [inhibitor, single point] |
| COCC(O)CNc1ccccc1 (centres undefined) | inconclusive: 6.31 µM [activator, single point] |
| CCN(CCn1cccn1)Cc1nc(-c2ccc(OC)cc2)no1 | inconclusive: 39.8 µM [activator, partial curve, poor fit] |
| Brc1ccccc1C1=Nn2c(nnc2-c2ccccc2)SC1 | inconclusive: 35.5 µM [inhibitor, single point] |
| CNC(=O)c1ccc(CSc2nc3ccncc3n2Cc2ccc(C)cc2)cc1 | inactive |
| COc1cccc2cc(C(=O)N3CCCCCCC3)c(=O)oc12 | inactive |
| O=C(NCC(=O)N1CCc2ccccc2C1)c1ccccc1Cl | inconclusive: 11.2 µM [activator, partial curve] |
| O=C(Nc1ccc(C(F)(F)F)cc1)N1CCC(N2CCCCC2)CC1 | inconclusive: 7.08 µM [activator, partial curve] |
| C/C(=N\Nc1nc2ccccc2[nH]1)c1ccc2c(c1)OCO2 | inconclusive: 14.1 µM [inhibitor, single point] |

Reformatted: 2 of the compounds above
Compound,Potency
CC(=O)Nc1ccc(S(=O)(=O)N2CCSC2)cc1,"inconclusive: 2.82 µM [inhibitor, single point]"
CCN1C(=O)/C(=C/c2cccs2)S/C1=N\S(=O)(=O)c1ccc(C)cc1,"inconclusive: 3.16 µM [inhibitor, partial curve, poor fit]"
